Patent US20180338897A1, “ORAL COMPOSITIONS FOR REDUCING DENTAL STAINS” (New York University, priority 2017, published 2018)
Some results were stated once for a whole list of compounds, not compound by compound.

System: yeast
Experiment: Disk diffusion on YPD agar plates with yeast cultures
Assay type: cell-based, Saccharomyces cerevisiae
Conditions: plates incubated at 30° C.
Experimental: The following materials were used: peptone, dextrose/glucose, marmite/yeast extract, agar, 0.1 M EDTA in MOPS solution, 0.1 M C-2 in MOPS solution, 0.1 M C-6 in MOPS solution, and […] Deferiprone in MOPS solution, and water.
Plate media was prepared containing 2% dextrose, 2% peptone, 0.36 g of yeast extract, and 1.5% agar in 1 L of water. The mixture was heated to dissolve the ingredients, and then autoclaved. 10 mL of the media was added to petri dishes to prepare plates.
The yeast culture was prepared by adding dry baker's yeast to warm water and streaked on the media plates. Cultures were allowed to grow for 16-24 hours.
Disks to which C-2, C-6, EDTA, or Deferiprone were added were added to petri dishes containing yeast cultures. The plates were incubated at 30° C. The effect on yeast growth was visualized and measured over time. The zone sizes were measured to the nearest millimeter using a ruler or caliper, including the diameter of the disk in the measurement. The measurements were rounded up to the nearest millimeter.

Cc1c(O)c(=O)ccn1C [Deferiprone, 3-hydroxy-1,2-dimethylpyridin-4(1H)-one]
Zone diameter (including the disk): > 2.45 cm
